No constants are given. Whether binding was seen depends on the method and setting. In cells and extracts the contact can be indirect. Some binding calls cover weakened binding; strength is not graded here.
Key:
[1] = molecular target: β1b-BFP (CaVβ1b subunit, N-terminally tagged with BFP) (UniProt P54283); assay: FRET or BRET; sensitized emission FRET by confocal microscopy in HEK-293 cells co-transfected with a GFP-tagged α1-subunit and BFP-β1b; FRET index calculated pixel by pixel
[2] = molecular target: β1b-HA (CaVβ1b subunit tagged with HA) (UniProt P54283); assay: co-IP; 1 mg total protein extract (RIPA) of β1b-HA cells mixed with 1 mg extract of CaV1.2-GFP or CaV3.3-GFP cells, overnight at 4 °C with Anti-HA Affinity Matrix; beads rinsed three times with RIPA buffer; blot with anti-GFP

By UniProt entry, the sequences of proteins in these tests, tags left out.
UniProt P54283: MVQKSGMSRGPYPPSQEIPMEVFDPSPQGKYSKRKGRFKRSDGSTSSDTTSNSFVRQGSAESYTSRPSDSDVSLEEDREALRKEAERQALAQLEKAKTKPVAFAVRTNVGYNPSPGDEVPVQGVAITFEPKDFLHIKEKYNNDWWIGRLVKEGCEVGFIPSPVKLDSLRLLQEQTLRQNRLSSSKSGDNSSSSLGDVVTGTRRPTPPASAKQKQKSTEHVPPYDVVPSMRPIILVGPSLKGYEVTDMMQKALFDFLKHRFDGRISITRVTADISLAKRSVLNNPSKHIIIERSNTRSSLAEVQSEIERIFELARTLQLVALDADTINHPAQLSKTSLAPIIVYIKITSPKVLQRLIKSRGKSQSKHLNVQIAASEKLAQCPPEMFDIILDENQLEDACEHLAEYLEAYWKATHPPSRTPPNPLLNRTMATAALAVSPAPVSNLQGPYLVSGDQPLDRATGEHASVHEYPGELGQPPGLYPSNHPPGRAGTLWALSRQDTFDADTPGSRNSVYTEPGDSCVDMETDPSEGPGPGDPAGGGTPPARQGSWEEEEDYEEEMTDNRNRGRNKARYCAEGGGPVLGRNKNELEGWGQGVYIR
UniProt O95180: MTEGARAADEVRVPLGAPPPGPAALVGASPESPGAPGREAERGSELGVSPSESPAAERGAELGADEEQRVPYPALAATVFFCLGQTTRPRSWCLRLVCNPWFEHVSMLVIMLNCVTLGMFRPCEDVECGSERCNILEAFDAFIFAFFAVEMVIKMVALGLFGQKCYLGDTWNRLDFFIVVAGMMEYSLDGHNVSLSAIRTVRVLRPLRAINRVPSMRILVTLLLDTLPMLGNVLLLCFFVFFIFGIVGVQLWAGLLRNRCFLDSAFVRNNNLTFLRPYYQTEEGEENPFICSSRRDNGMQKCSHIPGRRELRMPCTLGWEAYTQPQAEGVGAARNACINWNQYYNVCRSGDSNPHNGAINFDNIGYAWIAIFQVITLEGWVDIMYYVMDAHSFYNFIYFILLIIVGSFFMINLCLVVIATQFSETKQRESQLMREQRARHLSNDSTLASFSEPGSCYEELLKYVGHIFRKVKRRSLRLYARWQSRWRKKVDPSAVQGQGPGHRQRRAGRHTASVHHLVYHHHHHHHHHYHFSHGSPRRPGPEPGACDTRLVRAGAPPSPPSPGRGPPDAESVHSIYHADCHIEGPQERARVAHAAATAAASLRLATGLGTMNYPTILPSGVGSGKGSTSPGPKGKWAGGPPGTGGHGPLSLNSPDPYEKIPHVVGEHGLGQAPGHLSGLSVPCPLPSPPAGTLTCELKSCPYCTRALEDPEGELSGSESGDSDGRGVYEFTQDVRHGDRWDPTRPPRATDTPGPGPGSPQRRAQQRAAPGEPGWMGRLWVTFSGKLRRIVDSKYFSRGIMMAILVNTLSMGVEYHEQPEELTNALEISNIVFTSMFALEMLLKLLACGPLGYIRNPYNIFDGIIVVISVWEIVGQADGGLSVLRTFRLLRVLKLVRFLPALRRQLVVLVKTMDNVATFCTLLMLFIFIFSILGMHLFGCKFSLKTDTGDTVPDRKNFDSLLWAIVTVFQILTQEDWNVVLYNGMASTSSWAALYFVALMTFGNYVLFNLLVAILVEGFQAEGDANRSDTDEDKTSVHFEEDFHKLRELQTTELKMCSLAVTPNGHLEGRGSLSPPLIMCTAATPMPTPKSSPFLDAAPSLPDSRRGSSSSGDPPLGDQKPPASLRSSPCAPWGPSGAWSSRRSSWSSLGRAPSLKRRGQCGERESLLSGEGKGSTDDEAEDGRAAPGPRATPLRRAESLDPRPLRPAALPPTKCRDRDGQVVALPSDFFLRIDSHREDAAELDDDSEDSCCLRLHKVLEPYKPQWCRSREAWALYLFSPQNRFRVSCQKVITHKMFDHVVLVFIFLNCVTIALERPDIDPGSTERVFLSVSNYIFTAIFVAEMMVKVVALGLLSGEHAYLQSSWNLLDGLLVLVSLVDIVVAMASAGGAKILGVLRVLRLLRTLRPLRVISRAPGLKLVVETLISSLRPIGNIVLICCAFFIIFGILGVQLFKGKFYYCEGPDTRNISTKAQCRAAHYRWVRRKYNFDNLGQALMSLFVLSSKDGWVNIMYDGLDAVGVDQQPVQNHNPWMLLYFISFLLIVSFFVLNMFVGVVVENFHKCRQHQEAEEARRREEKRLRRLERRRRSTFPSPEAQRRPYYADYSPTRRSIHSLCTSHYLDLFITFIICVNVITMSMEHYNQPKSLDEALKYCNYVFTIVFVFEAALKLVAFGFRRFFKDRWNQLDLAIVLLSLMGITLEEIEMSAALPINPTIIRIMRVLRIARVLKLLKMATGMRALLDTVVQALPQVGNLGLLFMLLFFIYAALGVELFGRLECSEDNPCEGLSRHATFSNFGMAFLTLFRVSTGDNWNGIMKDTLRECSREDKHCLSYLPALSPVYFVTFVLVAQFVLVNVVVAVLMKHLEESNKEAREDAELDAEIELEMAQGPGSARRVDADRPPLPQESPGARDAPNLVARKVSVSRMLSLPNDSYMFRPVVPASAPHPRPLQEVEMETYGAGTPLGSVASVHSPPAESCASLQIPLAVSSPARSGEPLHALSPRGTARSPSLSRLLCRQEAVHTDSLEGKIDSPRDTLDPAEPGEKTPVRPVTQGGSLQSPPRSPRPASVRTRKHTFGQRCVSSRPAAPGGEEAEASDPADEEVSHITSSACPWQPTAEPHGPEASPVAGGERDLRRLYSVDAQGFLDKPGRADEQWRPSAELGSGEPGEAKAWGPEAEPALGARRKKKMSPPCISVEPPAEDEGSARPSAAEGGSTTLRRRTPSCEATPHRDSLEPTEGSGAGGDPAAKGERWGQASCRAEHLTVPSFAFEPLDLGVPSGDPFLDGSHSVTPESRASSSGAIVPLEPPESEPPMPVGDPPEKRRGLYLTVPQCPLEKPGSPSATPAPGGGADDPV
UniProt Q01815: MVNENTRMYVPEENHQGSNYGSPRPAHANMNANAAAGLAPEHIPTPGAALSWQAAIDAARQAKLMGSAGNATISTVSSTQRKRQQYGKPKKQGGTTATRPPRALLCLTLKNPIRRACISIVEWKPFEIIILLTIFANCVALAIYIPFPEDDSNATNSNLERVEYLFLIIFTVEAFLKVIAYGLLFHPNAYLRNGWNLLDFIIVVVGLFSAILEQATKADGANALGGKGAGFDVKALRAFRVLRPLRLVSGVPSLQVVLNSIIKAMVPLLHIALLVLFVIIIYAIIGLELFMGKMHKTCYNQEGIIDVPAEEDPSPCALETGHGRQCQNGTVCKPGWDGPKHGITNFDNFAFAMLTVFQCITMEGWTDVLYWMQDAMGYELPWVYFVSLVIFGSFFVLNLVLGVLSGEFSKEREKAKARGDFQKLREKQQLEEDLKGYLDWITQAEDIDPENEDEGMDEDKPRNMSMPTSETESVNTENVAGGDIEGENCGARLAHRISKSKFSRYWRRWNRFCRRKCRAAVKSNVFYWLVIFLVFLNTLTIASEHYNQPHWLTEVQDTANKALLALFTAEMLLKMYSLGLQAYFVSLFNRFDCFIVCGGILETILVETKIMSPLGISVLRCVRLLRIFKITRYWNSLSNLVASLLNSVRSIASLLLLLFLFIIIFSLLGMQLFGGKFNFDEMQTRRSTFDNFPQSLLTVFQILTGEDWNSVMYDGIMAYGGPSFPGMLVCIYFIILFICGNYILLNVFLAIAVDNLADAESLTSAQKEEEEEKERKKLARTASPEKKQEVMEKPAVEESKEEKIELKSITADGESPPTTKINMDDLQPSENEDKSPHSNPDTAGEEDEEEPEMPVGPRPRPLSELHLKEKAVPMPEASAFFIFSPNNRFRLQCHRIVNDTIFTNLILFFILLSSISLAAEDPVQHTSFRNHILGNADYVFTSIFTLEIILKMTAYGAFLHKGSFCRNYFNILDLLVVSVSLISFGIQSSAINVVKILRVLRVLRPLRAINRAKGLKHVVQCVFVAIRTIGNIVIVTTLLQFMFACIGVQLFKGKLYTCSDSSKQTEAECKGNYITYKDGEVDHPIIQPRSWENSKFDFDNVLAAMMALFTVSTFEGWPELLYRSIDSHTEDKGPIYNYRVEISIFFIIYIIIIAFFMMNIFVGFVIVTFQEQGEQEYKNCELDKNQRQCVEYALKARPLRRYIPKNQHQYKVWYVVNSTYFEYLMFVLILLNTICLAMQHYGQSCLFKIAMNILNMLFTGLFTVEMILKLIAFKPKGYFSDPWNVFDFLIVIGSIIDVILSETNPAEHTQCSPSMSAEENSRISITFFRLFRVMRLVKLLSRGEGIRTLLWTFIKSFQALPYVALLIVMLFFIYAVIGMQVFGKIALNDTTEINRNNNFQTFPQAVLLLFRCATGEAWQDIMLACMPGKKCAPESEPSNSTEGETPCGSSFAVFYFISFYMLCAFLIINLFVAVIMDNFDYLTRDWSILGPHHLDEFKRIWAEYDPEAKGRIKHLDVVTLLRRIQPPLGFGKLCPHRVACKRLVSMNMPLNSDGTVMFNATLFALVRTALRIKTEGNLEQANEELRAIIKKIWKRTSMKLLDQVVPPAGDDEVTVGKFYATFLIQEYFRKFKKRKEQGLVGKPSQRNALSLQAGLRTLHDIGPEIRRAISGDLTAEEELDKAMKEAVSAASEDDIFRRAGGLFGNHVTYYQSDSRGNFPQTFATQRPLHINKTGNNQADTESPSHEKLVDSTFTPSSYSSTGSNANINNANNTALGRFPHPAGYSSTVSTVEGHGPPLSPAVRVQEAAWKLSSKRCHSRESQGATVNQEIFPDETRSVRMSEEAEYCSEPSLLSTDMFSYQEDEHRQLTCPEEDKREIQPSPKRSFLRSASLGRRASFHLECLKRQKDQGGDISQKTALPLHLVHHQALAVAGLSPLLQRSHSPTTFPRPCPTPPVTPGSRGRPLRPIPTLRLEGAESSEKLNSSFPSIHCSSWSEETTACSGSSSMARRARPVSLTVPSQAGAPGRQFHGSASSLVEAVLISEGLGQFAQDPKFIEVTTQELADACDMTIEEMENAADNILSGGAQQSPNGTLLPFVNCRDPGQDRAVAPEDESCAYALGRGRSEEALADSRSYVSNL

Substance | binding [1] | binding [2]
CaV3.2-GFP channel (α1-subunit of CaV3.2 cloned at the 3' end of GFP in pEGFP-C1) (from UniProt O95180 1-2353) | no binding | –
CaV1.2-GFP channel (α1-subunit of CaV1.2, N-terminally tagged with GFP) (from UniProt Q01815 1-2139) | binds | binds
CaV3.1-GFP channel (α1-subunit of CaV3.1 cloned at the 3' end of GFP in pEGFP-C1) (from UniProt O43497 1-2377) | no binding | –
